The other results are listed elsewhere or left out.
Compound: CC1Cc2ccccc2N1C(=O)C1CCCN(C1)C(=O)CCl (mixture of isomers) [TRIM25 ligand 11 (diastereomer mixture)]
Assay: probe-labelled cysteine peptide fold change vs DMSO (competition) (log2 fold change); higher = less target engagement (more negative = stronger competition)
Conditions: THP-1, incubation time: 4 h
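Also: competitive chemoproteomic profiling in live THP-1 cells with an iodoacetamide desthiobiotin (IA-DTB) probe, comparing probe-labelled peptide intensities in compound-treated cells against DMSO-treated controls.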

Amino acid sequences for entries named in this document (tags omitted). A change or cut given only in a name is not applied to a line headed by its entry.
UniProt P41250: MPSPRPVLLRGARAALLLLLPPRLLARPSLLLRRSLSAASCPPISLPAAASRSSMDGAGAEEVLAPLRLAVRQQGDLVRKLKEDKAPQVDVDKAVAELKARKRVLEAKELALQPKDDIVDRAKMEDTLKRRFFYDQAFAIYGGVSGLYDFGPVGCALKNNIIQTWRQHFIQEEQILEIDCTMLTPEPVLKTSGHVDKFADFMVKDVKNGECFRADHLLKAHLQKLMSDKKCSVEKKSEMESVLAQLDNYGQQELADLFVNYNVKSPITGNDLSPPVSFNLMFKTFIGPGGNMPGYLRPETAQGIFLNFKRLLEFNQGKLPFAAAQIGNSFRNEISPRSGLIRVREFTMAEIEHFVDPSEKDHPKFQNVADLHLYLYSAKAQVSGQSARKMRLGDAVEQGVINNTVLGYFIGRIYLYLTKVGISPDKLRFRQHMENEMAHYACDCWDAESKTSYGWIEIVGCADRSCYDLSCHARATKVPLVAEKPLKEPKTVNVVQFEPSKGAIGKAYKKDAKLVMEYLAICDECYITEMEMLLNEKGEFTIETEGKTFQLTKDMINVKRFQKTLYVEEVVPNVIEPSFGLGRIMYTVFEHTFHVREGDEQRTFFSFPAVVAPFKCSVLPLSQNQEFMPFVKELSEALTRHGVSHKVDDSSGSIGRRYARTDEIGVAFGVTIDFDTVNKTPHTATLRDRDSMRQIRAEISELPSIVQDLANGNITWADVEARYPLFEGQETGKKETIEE
UniProt Q8N2G8: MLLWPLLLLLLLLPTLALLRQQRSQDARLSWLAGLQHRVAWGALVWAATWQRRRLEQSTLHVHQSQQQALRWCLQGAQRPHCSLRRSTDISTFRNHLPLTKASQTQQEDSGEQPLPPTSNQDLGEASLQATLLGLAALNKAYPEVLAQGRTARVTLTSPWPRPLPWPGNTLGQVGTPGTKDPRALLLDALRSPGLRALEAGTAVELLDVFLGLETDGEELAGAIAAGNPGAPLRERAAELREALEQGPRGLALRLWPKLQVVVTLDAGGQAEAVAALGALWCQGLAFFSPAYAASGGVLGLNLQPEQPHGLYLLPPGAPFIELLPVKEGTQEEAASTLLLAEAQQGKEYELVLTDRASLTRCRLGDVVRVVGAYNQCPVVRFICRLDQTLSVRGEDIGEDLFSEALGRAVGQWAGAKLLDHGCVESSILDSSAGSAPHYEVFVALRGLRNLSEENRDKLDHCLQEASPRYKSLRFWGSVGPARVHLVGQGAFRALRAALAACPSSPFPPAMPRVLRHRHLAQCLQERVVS
UniProt Q86SF2: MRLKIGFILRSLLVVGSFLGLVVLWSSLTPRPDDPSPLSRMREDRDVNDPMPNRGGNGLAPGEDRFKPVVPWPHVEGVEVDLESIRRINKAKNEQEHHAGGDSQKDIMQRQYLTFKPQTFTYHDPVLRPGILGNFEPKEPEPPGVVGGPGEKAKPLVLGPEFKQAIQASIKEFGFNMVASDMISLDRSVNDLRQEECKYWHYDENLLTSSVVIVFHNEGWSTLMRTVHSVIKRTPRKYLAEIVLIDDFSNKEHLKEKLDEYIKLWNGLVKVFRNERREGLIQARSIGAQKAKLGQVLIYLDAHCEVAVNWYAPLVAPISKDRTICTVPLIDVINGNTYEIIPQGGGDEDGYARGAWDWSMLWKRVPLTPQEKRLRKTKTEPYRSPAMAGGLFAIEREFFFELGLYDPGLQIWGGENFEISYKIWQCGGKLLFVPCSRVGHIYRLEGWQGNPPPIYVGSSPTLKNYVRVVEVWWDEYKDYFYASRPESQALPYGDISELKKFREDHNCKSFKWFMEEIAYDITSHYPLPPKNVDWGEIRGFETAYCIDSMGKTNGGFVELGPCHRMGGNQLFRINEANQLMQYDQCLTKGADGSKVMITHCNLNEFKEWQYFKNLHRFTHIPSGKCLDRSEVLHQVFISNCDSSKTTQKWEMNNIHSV
UniProt Q01415: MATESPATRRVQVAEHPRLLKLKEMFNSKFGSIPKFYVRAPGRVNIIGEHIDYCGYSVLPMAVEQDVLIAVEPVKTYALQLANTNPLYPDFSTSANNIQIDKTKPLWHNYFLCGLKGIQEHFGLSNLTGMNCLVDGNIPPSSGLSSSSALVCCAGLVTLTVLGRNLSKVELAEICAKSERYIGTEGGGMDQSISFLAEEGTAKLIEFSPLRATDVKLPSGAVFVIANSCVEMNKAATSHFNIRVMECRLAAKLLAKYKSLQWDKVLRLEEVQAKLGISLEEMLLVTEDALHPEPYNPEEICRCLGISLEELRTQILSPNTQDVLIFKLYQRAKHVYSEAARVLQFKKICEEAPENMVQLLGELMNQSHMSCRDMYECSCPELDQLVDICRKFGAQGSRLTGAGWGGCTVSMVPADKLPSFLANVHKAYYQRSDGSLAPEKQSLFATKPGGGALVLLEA
UniProt Q99684: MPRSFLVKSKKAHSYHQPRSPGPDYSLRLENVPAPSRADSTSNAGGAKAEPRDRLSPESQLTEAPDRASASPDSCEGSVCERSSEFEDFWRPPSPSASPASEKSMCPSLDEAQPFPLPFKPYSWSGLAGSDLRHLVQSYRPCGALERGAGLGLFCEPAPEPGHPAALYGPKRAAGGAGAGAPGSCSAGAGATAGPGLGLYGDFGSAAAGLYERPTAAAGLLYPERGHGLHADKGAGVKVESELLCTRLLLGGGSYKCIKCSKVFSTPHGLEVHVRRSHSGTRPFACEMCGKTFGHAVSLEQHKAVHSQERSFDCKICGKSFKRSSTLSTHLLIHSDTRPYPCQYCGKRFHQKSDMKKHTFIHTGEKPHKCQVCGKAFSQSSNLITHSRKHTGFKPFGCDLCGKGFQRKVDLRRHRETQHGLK
UniProt Q92616, whole entry, looked up: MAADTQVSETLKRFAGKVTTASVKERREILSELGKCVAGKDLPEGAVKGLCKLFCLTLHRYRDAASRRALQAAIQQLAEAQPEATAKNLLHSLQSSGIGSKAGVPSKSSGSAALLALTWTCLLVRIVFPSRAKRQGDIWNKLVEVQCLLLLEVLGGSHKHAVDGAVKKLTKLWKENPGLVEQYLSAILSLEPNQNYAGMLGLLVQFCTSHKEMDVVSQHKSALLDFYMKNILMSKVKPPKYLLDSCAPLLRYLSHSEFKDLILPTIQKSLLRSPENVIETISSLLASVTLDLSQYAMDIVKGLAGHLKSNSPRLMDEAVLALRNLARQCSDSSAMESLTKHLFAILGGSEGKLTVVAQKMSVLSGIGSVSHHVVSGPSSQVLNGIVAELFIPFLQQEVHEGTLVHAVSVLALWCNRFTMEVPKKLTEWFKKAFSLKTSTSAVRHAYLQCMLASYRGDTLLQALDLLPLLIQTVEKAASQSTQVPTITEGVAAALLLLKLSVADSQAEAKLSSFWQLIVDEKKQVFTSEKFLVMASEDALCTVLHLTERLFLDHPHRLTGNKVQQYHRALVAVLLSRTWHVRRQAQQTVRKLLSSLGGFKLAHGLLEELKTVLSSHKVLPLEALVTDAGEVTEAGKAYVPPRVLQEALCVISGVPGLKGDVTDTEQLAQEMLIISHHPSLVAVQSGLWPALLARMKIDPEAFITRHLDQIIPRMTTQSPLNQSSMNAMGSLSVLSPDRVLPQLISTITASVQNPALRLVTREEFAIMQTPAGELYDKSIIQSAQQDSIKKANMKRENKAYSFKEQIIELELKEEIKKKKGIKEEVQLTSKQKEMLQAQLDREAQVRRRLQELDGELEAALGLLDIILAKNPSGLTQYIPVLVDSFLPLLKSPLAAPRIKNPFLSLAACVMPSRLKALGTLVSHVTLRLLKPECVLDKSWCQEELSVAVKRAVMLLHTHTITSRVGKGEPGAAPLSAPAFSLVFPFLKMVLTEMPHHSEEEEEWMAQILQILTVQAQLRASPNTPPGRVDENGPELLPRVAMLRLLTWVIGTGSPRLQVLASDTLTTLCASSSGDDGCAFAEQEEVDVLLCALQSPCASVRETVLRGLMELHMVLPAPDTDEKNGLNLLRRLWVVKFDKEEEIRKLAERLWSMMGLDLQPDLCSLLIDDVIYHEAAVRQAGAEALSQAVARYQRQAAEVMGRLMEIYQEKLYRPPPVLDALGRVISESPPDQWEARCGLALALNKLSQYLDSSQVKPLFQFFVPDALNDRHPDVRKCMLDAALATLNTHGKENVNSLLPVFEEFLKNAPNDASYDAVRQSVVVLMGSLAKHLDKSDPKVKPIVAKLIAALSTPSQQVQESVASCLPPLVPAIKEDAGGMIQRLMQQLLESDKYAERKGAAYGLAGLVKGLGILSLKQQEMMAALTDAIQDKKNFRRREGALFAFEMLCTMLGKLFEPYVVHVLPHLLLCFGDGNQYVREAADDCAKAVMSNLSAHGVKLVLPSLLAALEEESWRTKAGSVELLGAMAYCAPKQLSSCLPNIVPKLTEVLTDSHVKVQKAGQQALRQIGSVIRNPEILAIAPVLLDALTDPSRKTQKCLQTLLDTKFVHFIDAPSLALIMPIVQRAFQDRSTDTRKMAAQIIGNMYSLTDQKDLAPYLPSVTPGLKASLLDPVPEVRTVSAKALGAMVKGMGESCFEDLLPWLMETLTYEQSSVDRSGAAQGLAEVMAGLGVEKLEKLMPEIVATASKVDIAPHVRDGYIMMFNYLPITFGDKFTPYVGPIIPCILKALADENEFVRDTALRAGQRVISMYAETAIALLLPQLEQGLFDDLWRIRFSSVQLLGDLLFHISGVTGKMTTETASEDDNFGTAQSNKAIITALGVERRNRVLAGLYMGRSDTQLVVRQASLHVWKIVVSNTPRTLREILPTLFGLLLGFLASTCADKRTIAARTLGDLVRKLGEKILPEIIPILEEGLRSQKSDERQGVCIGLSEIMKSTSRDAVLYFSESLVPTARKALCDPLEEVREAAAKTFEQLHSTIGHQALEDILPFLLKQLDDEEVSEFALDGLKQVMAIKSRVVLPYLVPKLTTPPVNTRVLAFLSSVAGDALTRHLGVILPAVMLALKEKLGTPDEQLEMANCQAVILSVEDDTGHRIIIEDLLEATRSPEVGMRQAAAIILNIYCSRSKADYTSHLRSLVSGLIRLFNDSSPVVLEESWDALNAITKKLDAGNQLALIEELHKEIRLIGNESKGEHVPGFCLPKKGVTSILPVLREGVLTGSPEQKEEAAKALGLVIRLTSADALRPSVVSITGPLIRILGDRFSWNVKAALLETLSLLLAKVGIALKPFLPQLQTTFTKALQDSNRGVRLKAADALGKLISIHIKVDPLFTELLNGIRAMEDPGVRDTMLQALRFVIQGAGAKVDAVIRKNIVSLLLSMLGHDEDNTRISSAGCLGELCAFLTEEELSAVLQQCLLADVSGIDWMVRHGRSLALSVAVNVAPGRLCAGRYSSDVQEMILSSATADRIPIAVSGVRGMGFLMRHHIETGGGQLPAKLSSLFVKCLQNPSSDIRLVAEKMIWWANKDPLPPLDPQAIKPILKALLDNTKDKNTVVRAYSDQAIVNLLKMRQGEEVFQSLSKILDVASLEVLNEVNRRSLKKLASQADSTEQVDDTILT
UniProt Q8WXI9: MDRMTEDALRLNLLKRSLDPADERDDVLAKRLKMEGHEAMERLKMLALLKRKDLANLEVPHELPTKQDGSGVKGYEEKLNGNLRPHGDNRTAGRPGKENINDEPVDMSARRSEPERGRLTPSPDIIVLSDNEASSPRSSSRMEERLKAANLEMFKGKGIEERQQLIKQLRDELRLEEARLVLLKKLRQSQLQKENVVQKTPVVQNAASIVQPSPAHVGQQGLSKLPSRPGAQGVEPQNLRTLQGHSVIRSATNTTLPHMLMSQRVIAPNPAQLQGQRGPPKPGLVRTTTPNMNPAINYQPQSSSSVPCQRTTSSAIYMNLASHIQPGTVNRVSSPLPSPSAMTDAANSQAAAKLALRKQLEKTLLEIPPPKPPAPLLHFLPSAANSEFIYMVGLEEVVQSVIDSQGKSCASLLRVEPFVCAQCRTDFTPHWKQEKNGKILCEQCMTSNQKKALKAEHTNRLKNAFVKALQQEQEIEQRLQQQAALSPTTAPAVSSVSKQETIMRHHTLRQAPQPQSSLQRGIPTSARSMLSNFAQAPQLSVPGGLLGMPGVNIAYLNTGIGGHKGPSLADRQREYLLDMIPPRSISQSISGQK
UniProt Q8WWP7: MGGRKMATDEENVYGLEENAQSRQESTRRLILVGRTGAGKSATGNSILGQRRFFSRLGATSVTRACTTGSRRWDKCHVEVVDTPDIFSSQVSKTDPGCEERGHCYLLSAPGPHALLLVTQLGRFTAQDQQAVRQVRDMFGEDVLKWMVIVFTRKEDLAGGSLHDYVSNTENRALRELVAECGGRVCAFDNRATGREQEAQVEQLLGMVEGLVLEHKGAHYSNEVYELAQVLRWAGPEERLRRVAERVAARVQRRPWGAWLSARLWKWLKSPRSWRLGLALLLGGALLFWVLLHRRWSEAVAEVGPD

| Target | probe-labelled cysteine peptide fold change (10 µM) | probe-labelled cysteine peptide fold change (50 µM) |
| --- | --- | --- |
| GIMAP2_Q9UG22_98_CYLLSAPGPHVLLLVTQLGR (UniProt Q9UG22) | -0.107 | 0.289 |
| GARS_P41250_442+444_FRQHMENEMAHYACDCWDAESK (UniProt P41250) | -0.119 | -0.105 |
| GHDC_Q8N2G8_423_LLDHGCVESSILDSSAGSAPHYEVFVALR (UniProt Q8N2G8) | -0.0969 | -0.173 |
| GALNT7_Q86SF2_562_TNGGFVELGPCHR (UniProt Q86SF2) | 0.112 | 0.133 |
| GBF1_Q92538_1707_IDCFLPHLR (UniProt Q92538) | 0.268 | 0.143 |
| GALK2_Q01415_349_KICEEAPENMVQLLGELMNQSHMSCR (UniProt Q01415) | 0.0715 | -0.26 |
| GANAB_Q14697_423_DEADVLEVDQGFDDHNLPCDVIWLDIEHADGK (UniProt Q14697) | 0.163 | 0.058 |
| GFI1_Q99684_398_KHTGFKPFGCDLCGK (UniProt Q99684) | -0.114 | 0.02 |
| GCN1_Q92616_932_LLKPECVLDK (UniProt Q92616) | -0.0621 | -0.00193 |
| GATAD2B_Q8WXI9_420+423_VEPFVCAQCR (UniProt Q8WXI9) | -0.0929 | -0.0885 |
| GATD3B_A0A0B4J2D5_244_VVTTPAFMCETALHYIHDGIGAMVR | 0.00433 |  |
| GIMAP1_Q8WWP7_76_CHVEVVDTPDIFSSQVSK (UniProt Q8WWP7) | 0.278 | -0.00806 |
| GCC2_Q8IWJ2_92_AETEQQCLSLK (UniProt Q8IWJ2) | 0.0658 | 0.339 |
| GCN1_Q92616_2015_ALCDPLEEVR (UniProt Q92616) | 0.0761 | 0.0471 |

Looked up one by one from above, 2 records:

| Target | probe-labelled cysteine peptide fold change (10 µM) | probe-labelled cysteine peptide fold change (50 µM) |
| --- | --- | --- |
| GCN1_Q92616_2015_ALCDPLEEVR (UniProt Q92616) | 0.0761 | 0.0471 |
| GATAD2B_Q8WXI9_420+423_VEPFVCAQCR (UniProt Q8WXI9) | -0.0929 | -0.0885 |

From the supplement of paper PMC12067093, “Discovery and optimisation of a covalent ligand for TRIM25 and its application to targeted protein ubiquitination” (Chemical Science, 2025)
